In publication PMC10024175, “Structuring supramolecular hyaluronan hydrogels via peptide self-assembly for modulating the cell microenvironment” (Materials Today Bio, 2023):
No constants are given. Whether binding was seen depends on the method and setting. Blank lines part the entries; values can stand above or below the binder they belong to.

Columns and labels:
[1] = target: (KI)2K peptide; test: condition: only at neutral pH, 1 mM peptide in water; zeta potential; 1 mM peptide in ultrapure water, neutral pH; self-association of the peptide; both purified
[2] = target: (KI)2K peptide; test: condition: only at pH 7 with NaCl up to 400 mM, 10 mM peptide; FTIR spectroscopy; 10 mM peptide in D2O, pH 7, NaCl 0, 50, 100, 200, 300 and 400 mM; beta-sheet formation read as self-assembly; both purified
[3] = target: (KI)3K peptide; test: condition: only at neutral pH, 1 mM peptide in water; zeta potential; 1 mM peptide in ultrapure water, neutral pH; self-association of the peptide; both purified
[4] = target: (KI)4K peptide; test: as above

binding [1]: no binding | binding [2]: no binding
Binder: KIKIK (acetylated N-terminus) [(KI)2K peptide]

binding [3]: no binding
Binder: KIKIKIK (acetylated N-terminus) [(KI)3K peptide]

binding [4]: no binding
Binder: KIKIKIKIK (acetylated N-terminus) [(KI)4K peptide]
